Results from US20260216141A1, “NECROSIS INHIBITOR” (LINKGEVITY LIMITED, priority 2023, published 2026).
Entries after “also recorded” stand apart in the source; their conditions may differ. At least one structure is not confirmed: it was looked up by name or label, or the drawing left a doubt.

Tests used:
[1] = test system: human intestinal fibroblast primary cell spheroids; experiment: Human intestinal fibroblast primary cell spheroids, hydrogen peroxide oxidative stress, Calcein AM/Ethidium homodimer-1 stain; format: cell-based; conditions: hydrogen peroxide 800 μM for 6 hrs; preventative; Dantrolene 100 μM, retinoic acid 10, 20 or 40 μM, Nifedipine 10 μM
Method: Media changes were on alternative days. […] Drug treatment was done overnight prior stress. […] Two repeats of all conditions were performed. Each repeat used 31 organoids per condition. […] DMSO controls were assessed in parallel on each plate.
Thus far, the Examples have focused on hypoxic and nutrient deprivation stressors. To test other stressors, this Example uses an oxidative stress/toxin stress model, where human intestinal fibroblast (HIF) primary cell spheroids were exposed to hydrogen peroxide. The standard viability Calcein AM/Ethidium homodimer-1 staining was used as a marker of cell death. Following 800 μM hydrogen peroxide exposure for 6 hrs, just over 25% of cells were dead in the control (i.e. relative to Triton X-100 that kills all cells).

Hepg2s spheroids = format: cell-based; conditions: hypoxic and nutrient deprivation stress, DRAQ7, up to day 7
Method: Media changes were on alternative days. […] DMSO controls were added on each plate.
In some of the following Examples, human 3D cell culture was employed using liver Hepg2 cells. 3D cell culture is known to accurately replicate a cell's native environment. During embryonic development, cells aggregate and self-assemble into complex multi-cellular structures. The same aggregation process can likewise occur in in vitro culture systems if cell-cell cohesion is favoured over cell attachment to a substrate. The resulting 3D cell culture aggregates are known as spheroids. […] A standard method of spheroid formation in U-bottom low adhesion plates was used in the Examples herein.
This is because, as the spheroids grow, only the peripheral cells obtain oxygen and nutrients from the cell culture medium. The inner cells die from cell death necrosis, with the formation of large necrotic cores (observable though use of standard live dead stains). Thus, necrotic core formation represents a naturally occurring hypoxic and nutrient stress. This resembles multiple forms of shock in humans where blood flow carrying nutrients and oxygen is disrupted to certain cells, tissues and/or organs.

Row | SMILES | necrosis following oxidative stress relative to control [1] | necrotic core formation / cell death necrosis relative to control (Hepg2s spheroids)
1 | COC(=O)C1=C(C)NC(C)=C(C(=O)OC)C1c1ccccc1[N+](=O)[O-] [Nifedipine] | either no significant difference or a worse effect to control | –
2 | CC1=C(/C=C/C(C)=C/C=C/C(C)=C/C(=O)O)C(C)(C)CCC1 [retinoic acid] | either no significant difference or a worse effect to control | no significant difference from the controls; also recorded: No significant necrosis prevention and/or treatment; also recorded: no significant effect on necrosis inhibition
